Source: the supplement of paper PMC11438910
Some of the results follow. Only a few entries rise above the background.

Columns and labels:
Assay in all cases: fluorescence intensity of antibody binding to polysaccharide-coupled beads; higher = stronger binding
[1] = target: pneumococcal polysaccharide C-Poly-1
[2] = target: pneumococcal polysaccharide C-Poly-2
[3] = target: pneumococcal polysaccharide Pn1
[4] = target: pneumococcal polysaccharide Pn10A
[5] = target: pneumococcal polysaccharide Pn7A
[6] = target: pneumococcal polysaccharide Pn7B
[7] = target: pneumococcal polysaccharide Pn7C
[8] = target: pneumococcal polysaccharide Pn7F
[9] = target: pneumococcal polysaccharide Pn8
[10] = target: pneumococcal polysaccharide Pn9A
[11] = target: pneumococcal polysaccharide Pn9L
[12] = target: pneumococcal polysaccharide Pn9N
[13] = target: pneumococcal polysaccharide Pn9V
[14] = antibody concentration 0.1 ng/mL
[15] = antibody concentration 0.534724 ng/mL
[16] = antibody concentration 2.8593 ng/mL
[17] = antibody concentration 15.2894 ng/mL
[18] = antibody concentration 81.7561 ng/mL
[19] = antibody concentration 437.17 ng/mL
[20] = antibody concentration 2337.65 ng/mL
[21] = antibody concentration 12500 ng/mL

B1: 3S41.4 (protein)
chain 1: EVQLVESGGGLVQPGGSLRLSCATSGFTFSNYWMYWFRQAPGKGLEWVSTISGSSTNTYYSGSVKGRFTISRDNAKNTLYLQMNSLRAEDTAVYYCARRGTDSSHWYFDLWGPGTPITVSS
chain 2: EIVMTQSPATLSLSPGERATLSCRASQSVSSNLAWYQQKPGQGPRLLIYDASNRATGIPDRFGGSGSGTDFTLTISSLEPEDVGVYYCQQESNWPLTFGGGTKVEIK
[1]; [14]
  fluorescence intensity: 24 MFI
[1]; [15]
  fluorescence intensity: 25 MFI
[1]; [16]
  fluorescence intensity: 24.2 MFI
[1]; [17]
  fluorescence intensity: 27 MFI
[1]; [18]
  fluorescence intensity: 24.5 MFI
[1]; [19]
  fluorescence intensity: 29 MFI
[1]; [20]
  fluorescence intensity: 37.8 MFI
[1]; [21]
  fluorescence intensity: 131 MFI
[2]; [14]
  fluorescence intensity: 19.5 MFI
[2]; [15]
  fluorescence intensity: 19.5 MFI
[2]; [16]
  fluorescence intensity: 20 MFI
[2]; [17]
  fluorescence intensity: 20 MFI
[2]; [18]
  fluorescence intensity: 20.8 MFI
[2]; [19]
  fluorescence intensity: 22.5 MFI
[2]; [20]
  fluorescence intensity: 31.2 MFI
[2]; [21]
  fluorescence intensity: 106 MFI
[3]; [14]
  fluorescence intensity: 14 MFI
[3]; [15]
  fluorescence intensity: 12.5 MFI
[3]; [16]
  fluorescence intensity: 12.5 MFI
[3]; [17]
  fluorescence intensity: 12.5 MFI
[3]; [18]
  fluorescence intensity: 13.5 MFI
[3]; [19]
  fluorescence intensity: 13.5 MFI
[3]; [20]
  fluorescence intensity: 17 MFI
[3]; [21]
  fluorescence intensity: 40 MFI
[4]; [14]
  fluorescence intensity: 25 MFI
[4]; [15]
  fluorescence intensity: 25.5 MFI
[4]; [16]
  fluorescence intensity: 25 MFI
[4]; [17]
  fluorescence intensity: 26 MFI
[4]; [18]
  fluorescence intensity: 26 MFI
[4]; [19]
  fluorescence intensity: 24.5 MFI

B2: 4-173.3 (protein)
chain 1: QLQLQESGPGLVKPSETLSLTCAVSGGSINNNYWSWIRQPPGKGLEWIGRIFGSGGSTDYNPSLKSRVTISTDTSKTQFSLNLNSVTAADTAVYFCARGSYQVDYWGQGVLVTVSS
chain 2: QAALTQPPSMSGSPGQSVTISCTGTSSDIGGWNRVSWYQQYPGKAPKLMIYEVSKRPSGVSDRFSGSKSGNTASLTISGLQAEDEADYYCSSYVHINNALFGGGTRLTVL
[5]; [17]
  fluorescence intensity: 18.5 MFI
[5]; [18]
  fluorescence intensity: 20 MFI
[5]; [19]
  fluorescence intensity: 20.2 MFI
[5]; [20]
  fluorescence intensity: 26 MFI
[5]; [21]
  fluorescence intensity: 107 MFI
[6]; [14]
  fluorescence intensity: 17 MFI
[6]; [15]
  fluorescence intensity: 17.5 MFI
[6]; [16]
  fluorescence intensity: 15 MFI
[6]; [17]
  fluorescence intensity: 15.5 MFI
[6]; [18]
  fluorescence intensity: 14.8 MFI
[6]; [19]
  fluorescence intensity: 15 MFI
[6]; [20]
  fluorescence intensity: 17 MFI
[6]; [21]
  fluorescence intensity: 31.5 MFI
[7]; [14]
  fluorescence intensity: 14.8 MFI
[7]; [15]
  fluorescence intensity: 16.8 MFI
[7]; [16]
  fluorescence intensity: 17 MFI
[7]; [17]
  fluorescence intensity: 15.2 MFI
[7]; [18]
  fluorescence intensity: 14 MFI
[7]; [19]
  fluorescence intensity: 14.8 MFI
[7]; [20]
  fluorescence intensity: 17 MFI
[7]; [21]
  fluorescence intensity: 28 MFI
[8]; [14]
  fluorescence intensity: 13 MFI
[8]; [15]
  fluorescence intensity: 14.8 MFI
[8]; [16]
  fluorescence intensity: 13.5 MFI
[8]; [17]
  fluorescence intensity: 14.5 MFI
[8]; [18]
  fluorescence intensity: 14.5 MFI
[8]; [19]
  fluorescence intensity: 15.5 MFI
[8]; [20]
  fluorescence intensity: 22.2 MFI
[8]; [21]
  fluorescence intensity: 72.5 MFI
[9]; [14]
  fluorescence intensity: 20 MFI
[9]; [15]
  fluorescence intensity: 20 MFI
[9]; [16]
  fluorescence intensity: 20 MFI
[9]; [17]
  fluorescence intensity: 20.5 MFI
[9]; [18]
  fluorescence intensity: 22.2 MFI
[9]; [19]
  fluorescence intensity: 23 MFI
[9]; [20]
  fluorescence intensity: 26.5 MFI
[9]; [21]
  fluorescence intensity: 42.8 MFI
[10]; [14]
  fluorescence intensity: 20.5 MFI
[10]; [15]
  fluorescence intensity: 20 MFI
[10]; [16]
  fluorescence intensity: 17.5 MFI
[10]; [17]
  fluorescence intensity: 19.5 MFI
[10]; [18]
  fluorescence intensity: 18.2 MFI
[10]; [19]
  fluorescence intensity: 20 MFI
[10]; [20]
  fluorescence intensity: 21 MFI
[10]; [21]
  fluorescence intensity: 35.5 MFI
[11]; [14]
  fluorescence intensity: 16.2 MFI
[11]; [15]
  fluorescence intensity: 17 MFI
[11]; [16]
  fluorescence intensity: 16.5 MFI
[11]; [17]
  fluorescence intensity: 16 MFI
[11]; [18]
  fluorescence intensity: 15.5 MFI
[11]; [19]
  fluorescence intensity: 16.5 MFI
[11]; [20]
  fluorescence intensity: 18 MFI
[11]; [21]
  fluorescence intensity: 28.5 MFI
[12]; [14]
  fluorescence intensity: 17.5 MFI
[12]; [15]
  fluorescence intensity: 16 MFI
[12]; [16]
  fluorescence intensity: 14 MFI
[12]; [17]
  fluorescence intensity: 14.5 MFI
[12]; [18]
  fluorescence intensity: 15 MFI
[12]; [19]
  fluorescence intensity: 14.5 MFI
[12]; [20]
  fluorescence intensity: 16 MFI
[12]; [21]
  fluorescence intensity: 31 MFI
[13]; [14]
  fluorescence intensity: 16.5 MFI
[13]; [15]
  fluorescence intensity: 14 MFI
[13]; [16]
  fluorescence intensity: 13.5 MFI
[13]; [17]
  fluorescence intensity: 16 MFI
[13]; [18]
  fluorescence intensity: 12.5 MFI
[13]; [19]
  fluorescence intensity: 15.5 MFI
[13]; [20]
  fluorescence intensity: 16.5 MFI
[13]; [21]
  fluorescence intensity: 24 MFI
